The text below walks through data of publication PMC5982823, “The Pseudokinase Domain of Saccharomyces cerevisiae Tra1 Is Required for Nuclear Localization and Incorporation into the SAGA and NuA4 Complexes” (G3: Genes|Genomes|Genetics, 2018).

Amino acid sequences for entries named in this document (tags omitted). A change or cut given only in a name is not applied to a line headed by its entry.
UniProt P38811: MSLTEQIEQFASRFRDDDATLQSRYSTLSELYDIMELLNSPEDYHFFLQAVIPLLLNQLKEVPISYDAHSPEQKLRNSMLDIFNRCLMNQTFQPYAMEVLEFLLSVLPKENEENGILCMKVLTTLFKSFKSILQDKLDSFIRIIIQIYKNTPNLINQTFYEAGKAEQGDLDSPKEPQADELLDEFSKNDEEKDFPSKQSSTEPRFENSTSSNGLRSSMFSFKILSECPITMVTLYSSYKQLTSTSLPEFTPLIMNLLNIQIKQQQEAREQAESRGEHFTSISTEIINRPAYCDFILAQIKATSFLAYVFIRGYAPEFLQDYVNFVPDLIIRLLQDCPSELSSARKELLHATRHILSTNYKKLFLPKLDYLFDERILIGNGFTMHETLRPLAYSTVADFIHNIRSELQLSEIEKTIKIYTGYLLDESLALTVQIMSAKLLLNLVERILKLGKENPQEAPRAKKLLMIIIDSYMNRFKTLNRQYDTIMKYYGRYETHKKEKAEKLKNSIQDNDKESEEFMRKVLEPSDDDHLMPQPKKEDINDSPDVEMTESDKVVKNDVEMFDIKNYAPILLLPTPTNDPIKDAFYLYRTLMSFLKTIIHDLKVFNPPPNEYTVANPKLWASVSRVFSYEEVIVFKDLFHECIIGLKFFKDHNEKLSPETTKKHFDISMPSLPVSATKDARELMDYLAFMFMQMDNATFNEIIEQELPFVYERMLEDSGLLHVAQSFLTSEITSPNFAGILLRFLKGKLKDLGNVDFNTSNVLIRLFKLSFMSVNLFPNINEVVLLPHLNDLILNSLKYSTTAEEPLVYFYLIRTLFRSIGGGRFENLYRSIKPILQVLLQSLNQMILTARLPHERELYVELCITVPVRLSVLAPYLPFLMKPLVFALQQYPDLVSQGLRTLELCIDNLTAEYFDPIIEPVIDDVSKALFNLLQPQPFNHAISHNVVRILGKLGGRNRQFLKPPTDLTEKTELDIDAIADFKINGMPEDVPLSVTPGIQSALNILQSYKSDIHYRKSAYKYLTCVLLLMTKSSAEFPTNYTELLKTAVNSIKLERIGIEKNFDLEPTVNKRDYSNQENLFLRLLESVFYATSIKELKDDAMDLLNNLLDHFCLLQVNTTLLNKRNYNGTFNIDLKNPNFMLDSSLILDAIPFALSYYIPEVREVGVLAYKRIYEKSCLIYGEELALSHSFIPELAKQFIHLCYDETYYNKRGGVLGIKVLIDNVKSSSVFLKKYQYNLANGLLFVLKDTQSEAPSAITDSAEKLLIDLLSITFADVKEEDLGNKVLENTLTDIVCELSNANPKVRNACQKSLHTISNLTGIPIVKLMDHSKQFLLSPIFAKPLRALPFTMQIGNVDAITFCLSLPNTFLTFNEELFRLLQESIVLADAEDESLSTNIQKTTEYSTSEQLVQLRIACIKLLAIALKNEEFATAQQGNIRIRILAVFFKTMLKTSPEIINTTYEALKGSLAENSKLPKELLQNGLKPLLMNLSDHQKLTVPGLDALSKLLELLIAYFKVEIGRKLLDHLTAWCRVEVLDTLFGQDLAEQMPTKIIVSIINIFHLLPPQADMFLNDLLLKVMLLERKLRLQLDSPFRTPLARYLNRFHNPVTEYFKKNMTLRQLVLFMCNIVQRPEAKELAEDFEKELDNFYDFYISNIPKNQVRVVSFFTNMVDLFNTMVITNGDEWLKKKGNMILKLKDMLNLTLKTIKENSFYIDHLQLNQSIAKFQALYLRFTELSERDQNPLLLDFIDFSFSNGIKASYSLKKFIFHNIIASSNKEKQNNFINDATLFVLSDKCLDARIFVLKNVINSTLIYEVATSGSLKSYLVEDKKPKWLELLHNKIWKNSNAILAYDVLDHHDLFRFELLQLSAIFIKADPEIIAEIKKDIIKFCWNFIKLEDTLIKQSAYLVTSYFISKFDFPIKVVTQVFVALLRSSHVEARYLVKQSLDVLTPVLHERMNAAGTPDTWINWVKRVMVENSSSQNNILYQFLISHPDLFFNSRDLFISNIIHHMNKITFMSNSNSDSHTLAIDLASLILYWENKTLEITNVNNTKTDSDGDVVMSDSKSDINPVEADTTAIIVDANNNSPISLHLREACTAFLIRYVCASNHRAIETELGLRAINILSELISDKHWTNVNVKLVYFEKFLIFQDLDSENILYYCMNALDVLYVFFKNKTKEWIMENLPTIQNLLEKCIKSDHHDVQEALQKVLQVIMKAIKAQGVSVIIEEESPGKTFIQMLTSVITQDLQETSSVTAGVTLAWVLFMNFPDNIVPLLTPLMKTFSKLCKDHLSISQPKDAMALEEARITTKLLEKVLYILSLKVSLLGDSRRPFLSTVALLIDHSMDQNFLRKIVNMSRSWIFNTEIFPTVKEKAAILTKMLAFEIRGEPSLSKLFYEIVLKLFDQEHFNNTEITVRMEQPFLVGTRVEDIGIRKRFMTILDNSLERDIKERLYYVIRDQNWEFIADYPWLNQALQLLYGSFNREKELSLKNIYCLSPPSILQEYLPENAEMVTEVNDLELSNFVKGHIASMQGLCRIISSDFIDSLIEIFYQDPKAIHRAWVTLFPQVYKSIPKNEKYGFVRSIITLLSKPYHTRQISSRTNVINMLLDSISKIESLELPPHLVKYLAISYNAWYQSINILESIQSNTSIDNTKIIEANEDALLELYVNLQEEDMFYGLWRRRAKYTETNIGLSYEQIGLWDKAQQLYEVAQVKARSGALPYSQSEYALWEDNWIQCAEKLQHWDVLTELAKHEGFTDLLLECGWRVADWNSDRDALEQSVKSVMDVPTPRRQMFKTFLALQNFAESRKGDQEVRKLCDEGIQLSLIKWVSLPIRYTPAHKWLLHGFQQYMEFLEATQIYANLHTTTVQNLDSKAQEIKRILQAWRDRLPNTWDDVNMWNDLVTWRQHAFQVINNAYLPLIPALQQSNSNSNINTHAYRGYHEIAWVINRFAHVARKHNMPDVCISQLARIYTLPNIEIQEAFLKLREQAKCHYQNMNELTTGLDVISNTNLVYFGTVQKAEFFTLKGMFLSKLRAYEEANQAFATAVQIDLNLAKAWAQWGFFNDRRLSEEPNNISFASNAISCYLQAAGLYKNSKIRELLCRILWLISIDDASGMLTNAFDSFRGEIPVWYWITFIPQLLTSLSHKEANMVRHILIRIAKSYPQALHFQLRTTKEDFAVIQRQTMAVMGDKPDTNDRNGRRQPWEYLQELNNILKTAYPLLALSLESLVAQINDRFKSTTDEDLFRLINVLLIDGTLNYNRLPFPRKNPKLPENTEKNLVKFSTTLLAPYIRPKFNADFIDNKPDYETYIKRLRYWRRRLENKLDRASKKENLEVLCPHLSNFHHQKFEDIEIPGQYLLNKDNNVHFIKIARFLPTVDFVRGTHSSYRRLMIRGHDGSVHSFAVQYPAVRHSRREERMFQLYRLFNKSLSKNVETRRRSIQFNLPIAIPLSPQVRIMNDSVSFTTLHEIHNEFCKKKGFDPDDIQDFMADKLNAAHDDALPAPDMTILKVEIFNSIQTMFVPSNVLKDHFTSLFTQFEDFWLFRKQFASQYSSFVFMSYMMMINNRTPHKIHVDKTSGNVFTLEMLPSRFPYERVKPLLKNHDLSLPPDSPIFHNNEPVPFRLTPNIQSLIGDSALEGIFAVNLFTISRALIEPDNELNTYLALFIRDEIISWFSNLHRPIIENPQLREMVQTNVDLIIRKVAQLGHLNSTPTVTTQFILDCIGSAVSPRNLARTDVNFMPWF
UniProt P35177: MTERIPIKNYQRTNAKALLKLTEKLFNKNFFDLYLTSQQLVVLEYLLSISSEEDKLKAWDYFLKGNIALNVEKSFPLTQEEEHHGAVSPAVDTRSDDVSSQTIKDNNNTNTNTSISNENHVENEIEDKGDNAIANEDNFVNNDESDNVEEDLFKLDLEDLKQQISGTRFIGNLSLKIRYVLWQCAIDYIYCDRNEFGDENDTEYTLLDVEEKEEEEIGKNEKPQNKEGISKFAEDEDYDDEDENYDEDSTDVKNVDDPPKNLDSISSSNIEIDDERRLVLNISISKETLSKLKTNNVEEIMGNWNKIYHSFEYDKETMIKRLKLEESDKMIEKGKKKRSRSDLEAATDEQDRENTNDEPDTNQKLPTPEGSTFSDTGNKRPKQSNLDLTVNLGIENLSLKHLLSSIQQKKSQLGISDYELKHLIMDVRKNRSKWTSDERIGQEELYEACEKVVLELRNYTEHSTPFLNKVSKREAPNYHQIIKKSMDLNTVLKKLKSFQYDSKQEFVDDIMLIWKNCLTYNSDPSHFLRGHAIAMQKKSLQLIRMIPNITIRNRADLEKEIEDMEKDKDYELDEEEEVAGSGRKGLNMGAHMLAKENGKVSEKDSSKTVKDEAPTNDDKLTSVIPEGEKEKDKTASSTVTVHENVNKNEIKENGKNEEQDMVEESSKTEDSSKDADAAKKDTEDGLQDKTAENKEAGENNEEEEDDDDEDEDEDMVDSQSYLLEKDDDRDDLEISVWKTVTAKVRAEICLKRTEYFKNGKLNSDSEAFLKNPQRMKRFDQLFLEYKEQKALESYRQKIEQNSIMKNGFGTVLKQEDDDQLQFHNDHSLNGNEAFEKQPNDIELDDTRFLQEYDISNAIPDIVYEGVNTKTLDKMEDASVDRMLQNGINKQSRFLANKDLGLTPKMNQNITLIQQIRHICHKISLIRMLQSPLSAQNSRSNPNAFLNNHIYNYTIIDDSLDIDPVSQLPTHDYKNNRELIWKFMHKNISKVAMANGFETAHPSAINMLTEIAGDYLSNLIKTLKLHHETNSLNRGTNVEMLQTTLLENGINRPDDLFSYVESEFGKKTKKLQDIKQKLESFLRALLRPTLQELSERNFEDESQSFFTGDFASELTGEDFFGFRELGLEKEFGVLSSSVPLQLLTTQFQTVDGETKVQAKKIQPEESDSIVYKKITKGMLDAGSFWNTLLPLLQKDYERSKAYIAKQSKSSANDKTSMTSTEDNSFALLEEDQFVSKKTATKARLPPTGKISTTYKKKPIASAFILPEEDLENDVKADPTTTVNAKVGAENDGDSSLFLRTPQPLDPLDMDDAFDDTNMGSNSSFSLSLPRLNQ

The target of experiment [1] is Flag^5-tagged Tra1 Q3 (R3389Q, R3390Q, R3456Q) (S. cerevisiae) (UniProt P38811). Kind of experiment: co-IP; Flag^5-Tra1 or Flag^5-Tra1 Q3 pulled down with anti-Flag M2 magnetic beads from 2 mg crude lysate of heterozygous diploid strains; myc^9-Spt7 detected with anti-myc antibody.
Experiment [2] has as its target Flag^5-tagged Tra1 (wild type) (S. cerevisiae) (UniProt P38811). The description is as above.

These are yes or no findings as the source states them, for the method shown. In cells and extracts the contact can be indirect. Some entries that bind do so weakly or less than the wild type.

Regarding “myc^9-tagged Spt7, full-length form (Spt7^SAGA) (from UniProt P35177 1-1332)”, the binding result in experiment [1] and in experiment [2] was “binds” in each case.
